This note sets out measurements from paper PMC5996148.

Protein sequences, listed by entry. Tags and fused reporters are not part of them. Lines headed by an entry give the natural chain unless they say otherwise; changes in a name come on top.
UniProt P32019: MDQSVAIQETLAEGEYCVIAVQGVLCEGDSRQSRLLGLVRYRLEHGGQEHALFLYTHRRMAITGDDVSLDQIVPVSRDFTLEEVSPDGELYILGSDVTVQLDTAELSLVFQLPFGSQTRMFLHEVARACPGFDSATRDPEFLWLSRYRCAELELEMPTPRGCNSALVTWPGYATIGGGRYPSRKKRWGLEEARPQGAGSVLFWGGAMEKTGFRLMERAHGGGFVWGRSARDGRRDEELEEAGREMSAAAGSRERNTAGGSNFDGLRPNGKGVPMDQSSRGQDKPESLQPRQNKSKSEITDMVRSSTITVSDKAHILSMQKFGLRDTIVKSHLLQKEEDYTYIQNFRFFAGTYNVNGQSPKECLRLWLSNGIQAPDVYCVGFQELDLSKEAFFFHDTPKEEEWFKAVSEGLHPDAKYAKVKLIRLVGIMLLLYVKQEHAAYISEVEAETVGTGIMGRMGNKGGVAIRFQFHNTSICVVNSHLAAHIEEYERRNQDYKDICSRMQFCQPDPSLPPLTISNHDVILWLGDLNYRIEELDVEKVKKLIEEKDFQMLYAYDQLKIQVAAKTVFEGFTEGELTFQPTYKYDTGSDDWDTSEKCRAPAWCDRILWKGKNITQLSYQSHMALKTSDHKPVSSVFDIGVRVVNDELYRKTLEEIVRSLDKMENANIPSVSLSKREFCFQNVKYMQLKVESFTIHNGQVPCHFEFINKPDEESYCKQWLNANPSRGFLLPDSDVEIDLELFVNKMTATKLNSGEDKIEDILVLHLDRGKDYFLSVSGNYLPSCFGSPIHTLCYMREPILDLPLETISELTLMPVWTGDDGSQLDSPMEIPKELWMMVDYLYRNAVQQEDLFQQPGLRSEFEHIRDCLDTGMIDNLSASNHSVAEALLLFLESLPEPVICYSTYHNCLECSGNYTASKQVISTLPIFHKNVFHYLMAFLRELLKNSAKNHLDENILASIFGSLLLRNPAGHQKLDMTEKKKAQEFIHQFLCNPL

Some test systems named below: IL7 (human); IL8RA (human); ILVBL (human); IMPA2 (human); IMPDH1 (human); INDO (human); ING3 (human); INPP1 (human); INTS4 (human); INVS (human); IRAK3 (human); IREB2 (human); IRF1 (human); IRF3 (human); IRF5 (human); IRF6 (human); ISG15 (human).
Test in all cases: protein microarray (ProtoArray v5.0), streptavidin-Alexa Fluor 647
What all share (details): 3'-biotin; 20 mM Tris (pH 7.5), 5 mM MgCl2, 100 mM KCl, 0.1% Tween-20, A/T-rich and random oligonucleotide blockers; temperature not stated; high values mean tight binding

A further assay deals with INPP5B (UniProt P32019).
Assay [1] relates to IQ and ubiquitin-like domain-containing protein (human).
A further assay concerns the target T1, IRF4 (UniProt Q15306).
T1 sequence: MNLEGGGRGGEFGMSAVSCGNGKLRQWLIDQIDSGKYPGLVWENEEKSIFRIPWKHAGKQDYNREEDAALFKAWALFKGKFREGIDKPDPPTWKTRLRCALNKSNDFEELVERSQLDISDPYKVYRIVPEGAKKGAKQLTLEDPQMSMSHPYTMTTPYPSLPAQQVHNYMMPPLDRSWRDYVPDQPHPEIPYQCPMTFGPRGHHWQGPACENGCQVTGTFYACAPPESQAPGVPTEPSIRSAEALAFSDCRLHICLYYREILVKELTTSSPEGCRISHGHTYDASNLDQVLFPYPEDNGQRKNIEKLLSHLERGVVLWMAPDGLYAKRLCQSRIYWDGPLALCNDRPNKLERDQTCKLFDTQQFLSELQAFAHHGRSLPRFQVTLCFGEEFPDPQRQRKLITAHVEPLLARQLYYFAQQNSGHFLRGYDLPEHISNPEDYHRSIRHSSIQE

Where “and” joins values, the source holds several entries; their conditions need not be identical. Equal entries are not always repeated. The list shows a part of the results. For some assays here: Construct or isoform of the protein are uncertain.

Regarding “GGGAGGCTGAGGCAGG [G4-1 biotinylated (PQS2)]”, the binding signal was -0.345 z-score in the assay with IL7 (human); -0.321 z-score in the assay with IL8RA (human); -0.312 z-score and -0.324 z-score with ILVBL (human); -0.252 z-score in the assay with IMPA2 (human); -0.336 z-score in the assay with IMPDH1 (human); -0.321 z-score in the assay with INDO (human). The binding signal in the assay with ING3 (human) is -0.353 z-score; in the assay on INPP1 (human), -0.316 z-score; in the assay with INPP5B, -0.314 z-score; in the assay with INTS4 (human), -0.308 z-score; in the assay with INVS (human), -0.355 z-score; in assay [1] it was -0.304 z-score. For the same sequence, the binding signal is -0.322 z-score in the assay with IRAK3 (human); -0.298 z-score in the assay with IREB2 (human); -0.279 z-score in the assay on IRF1 (human); -0.307 z-score in the assay with IRF3 (human); -0.316 z-score in the assay with IRF4; -0.337 z-score with IRF5 (human). Also, the results for the binding signal in the assay on IRF6 (human) and in the assay on ISG15 (human) were -0.347 z-score and -0.301 z-score, respectively.
